Test results published in doi:10.1101/2020.07.30.230052 (bioRxiv, 2020).
No constants are given. Whether binding was seen depends on the method and setting. Binding seen in cells or lysates may run through a third protein. Some binding calls cover weakened binding; strength is not graded here.

Protein sequences, listed by entry. Tags and fused reporters are not part of them. Residues count along the entry.
UniProt P24228, residues 21-477: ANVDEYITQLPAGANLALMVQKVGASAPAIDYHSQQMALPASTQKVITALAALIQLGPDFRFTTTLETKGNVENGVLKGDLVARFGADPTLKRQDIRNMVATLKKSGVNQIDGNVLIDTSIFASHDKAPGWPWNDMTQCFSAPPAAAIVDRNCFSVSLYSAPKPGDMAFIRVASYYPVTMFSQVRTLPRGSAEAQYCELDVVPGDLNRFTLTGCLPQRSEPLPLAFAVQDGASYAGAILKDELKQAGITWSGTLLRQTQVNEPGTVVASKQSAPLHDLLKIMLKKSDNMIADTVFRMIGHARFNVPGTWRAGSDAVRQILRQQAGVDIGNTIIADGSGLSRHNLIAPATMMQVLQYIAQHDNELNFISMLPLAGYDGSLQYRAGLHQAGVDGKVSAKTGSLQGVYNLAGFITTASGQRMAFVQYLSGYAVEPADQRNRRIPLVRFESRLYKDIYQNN

Molecular target: PBP4, endogenous in E. coli BW25113 cells (Escherichia coli (endogenous in BW25113)) (UniProt P24228)
Assay: cross-linking + co-IP

B1: PBP1A, endogenous in E. coli BW25113 cells (enzyme, UniProt P02918 1-850)
chain: MKFVKYFLILAVCCILLGAGSIYGLYRYIEPQLPDVATLKDVRLQIPMQIYSADGELIAQYGEKRRIPVTLDQIPPEMVKAFIATEDSRFYEHHGVDPVGIFRAASVALFSGHASQGASTITQQLARNFFLSPERTLMRKIKEVFLAIRIEQLLTKDEILELYLNKIYLGYRAYGVGAAAQVYFGKTVDQLTLNEMAVIAGLPKAPSTFNPLYSMDRAVARRNVVLSRMLDEGYITQQQFDQTRTEAINANYHAPEIAFSAPYLSEMVRQEMYNRYGESAYEDGYRIYTTITRKVQQAAQQAVRNNVLDYDMRHGYRGPANVLWKVGESAWDNNKITDTLKALPTYGPLLPAAVTSANPQQATAMLADGSTVALSMEGVRWARPYRSDTQQGPTPRKVTDVLQTGQQIWVRQVGDAWWLAQVPEVNSALVSINPQNGAVMALVGGFDFNQSKFNRATQALRQVGSNIKPFLYTAAMDKGLTLASMLNDVPISRWDASAGSDWQPKNSPPQYAGPIRLRQGLGQSKNVVMVRAMRAMGVDYAAEYLQRFGFPAQNIVHTESLALGSASFTPMQVARGYAVMANGGFLVDPWFISKIENDQGGVIFEAKPKVACPECDIPVIYGDTQKSNVLENNDVEDVAISREQQNVSVPMPQLEQANQALVAKTGAQEYAPHVINTPLAFLIKSALNTNIFGEPGWQGTGWRAGRDLQRRDIGGKTGTTNSSKDAWFSGYGPGVVTSVWIGFDDHRRNLGHTTASGAIKDQISGYEGGAKSAQPAWDAYMKAVLEGVPEQPLTPPPGIVTVNIDRSTGQLANGGNSREEYFIEGTQPTQQAVHEVGTTIIDNGEAQELF
  binding: binds

B2: LpoA, endogenous in E. coli BW25113 cells (protein, UniProt P45464 27-678)
chain: CGTHTPDQSTAYMQGTAQADSAFYLQQMQQSSDDTRINWQLLAIRALVKEGKTGQAVELFNQLPQELNDAQRREKTLLAVEIKLAQKDFAGAQNLLAKITPADLEQNQQARYWQAKIDASQGRPSIDLLRALIAQEPLLGAKEKQQNIDATWQALSSMTQEQANTLVINADENILQGWLDLQRVWFDNRNDPDMMKAGIADWQKRYPNNPGAKMLPTQLVNVKAFKPASTNKIALLLPLNGQAAVFGRTIQQGFEAAKNIGTQPVAAQVAAAPAADVAEQPQPQTVDGVASPAQASVSDLTGEQPAAQPVPVSAPATSTAAVSAPANPSAELKIYDTSSQPLSQILSQVQQDGASIVVGPLLKNNVEELLKSNTPLNVLALNQPENIENRVNICYFALSPEDEARDAARHIRDQGKQAPLVLIPRSSLGDRVANAFAQEWQKLGGGTVLQQKFGSTSELRAGVNGGSGIALTGSPITLRATTDSGMTTNNPTLQTTPTDDQFTNNGGRVDAVYIVATPGEIAFIKPMIAMRNGSQSGATLYASSRSAQGTAGPDFRLEMEGLQYSEIPMLAGGNLPLMQQALSAVNNDYSLARMYAMGVDAWSLANHFSQMRQVQGFEINGNTGSLTANPDCVINRNLSWLQYQQGQVVPVS
  binding: binds
